Assay results: PubChem BioAssay AID485314 (National Center for Advancing Translational Sciences (NCATS), 2010)
Values joined by “and” are separate entries in the source; they are usually repeats but may differ in a detail not shown here. Equal entries are not always repeated. Hit rate of the full screen: of about 340,000 compounds, about 4,500 (1.3%) were called active. This list was built around the results that the source calls inconclusive (neither active nor inactive); the mix of calls is not that of the screen. Calls come from the whole dose curve; as a rule, active = well fitted inhibition curve with a large enough effect; inconclusive = small, poorly fitted or top-dose-only effect, or another doubt; inactive = no such curve, though single readings can be large or run the other way. Potencies of inconclusive entries are doubtful fits and often do not repeat.

target: DNA polymerase beta (Homo sapiens) (UniProt P06746); assay: qHTS Assay for Inhibitors of DNA Polymerase Beta; details: Pol beta primer extension/strand displacement, fluorescence kinetic; activity change, negative = inhibition: at 114 µM (top of the series)
Procedure, shortened: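 Curves were derived by four-parameter Hill fits of normalized qHTS data. The kinetic fluorescent primer-extension read was taken at 0 and 10 min after 50 nM substrate, following a 15 min room-temperature preincubation of 10 nM enzyme with compounds.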
% is set by controls: 0 for no effect and ±100 for the full control effect; potency is the fitted concentration of half-maximal effect.

Compound | Potency | activity change, negative = inhibition
COc1cccc(-c2nc3c(c(SCC(=O)N4CCOCC4)n2)Cc2c(CO)cnc(C)c2O3)c1 | inactive | 
COc1ccc(N2CCN(c3ncnc4c3cnn4-c3ccc(F)cc3)CC2)cc1 | inactive | 
O=C(Nc1cccc2ccccc12)N1CCN(c2ccccc2)CC1 | inconclusive: 56.2 µM [inhibitor, partial curve, poor fit] | 
Cn1ncc(C#N)c1/N=C/N1CCCC1 | active: 89.1 µM | 
O=C1c2ccccc2-c2onc3c(Oc4ccccc4)cc(O)c1c23 | active: 35.5 µM | 
Cc1ccc(OCC(=O)Nc2ccc(N3CCOCC3)cc2)c([N+](=O)[O-])n1 | inconclusive: 79.4 µM [inhibitor, single point] | 
Cc1ccc(-n2ncc(C(=O)NCCN3CCc4ccccc4C3)c2C2CCN(C(=O)OC(C)(C)C)CC2)cc1C | inconclusive: 89.1 µM [inhibitor, single point] | 
COc1cc(NC(=O)c2cc3nc(C4CC4)cc(C(F)(F)F)n3n2)c(OC)cc1Cl | inconclusive: 56.2 µM [inhibitor, partial curve] | 
CCn1cc(/C=N\NC(=O)c2c[nH]c3ccccc23)c(C)n1 | inconclusive: 89.1 µM [inhibitor, single point] | 
CN(Cc1cn(C)nc1-c1ccccc1F)C1CCOC1 (stereo unspecified) | inconclusive: 1.41 µM [inhibitor, full curve] | 
CCN(CC)CCN(Cc1cc2cc3c(cc2[nH]c1=O)OCCO3)C(=S)NC | inactive | 
CC1(C)Cc2c(c(N3CCCC3)nc3sc4c(N5CCNCC5)ncnc4c23)CO1 | inconclusive: 63.1 µM [inhibitor, single point] | 
O=[N+]([O-])c1ccc(N2CCN(c3ccc(F)cc3)CC2)cc1 | inconclusive: 39.8 µM [inhibitor, single point] | 
CC(C)Cc1nnc(NC(=O)CSc2ncn[nH]2)s1 | inconclusive: 100 µM [inhibitor, single point] | 
O=S(=O)(NCC(O)COCc1ccco1)c1cccs1 (stereo unspecified) | active: 22.4 µM | 
COc1cc(NC(=O)COC(=O)c2ccc(S(=O)(=O)N3CC(C)CC(C)C3)cc2)c(C)cc1[N+](=O)[O-] (stereo unspecified) | inconclusive: 2.51 µM [inhibitor, partial curve, poor fit] | 
Cn1c(NC(=O)c2cc(-c3ccc4c(c3)OCO4)nc3ccccc23)cc(=O)n(C)c1=O | inconclusive: 39.8 µM [inhibitor, single point] | 
COc1cc2c(cc1NC(=O)Nc1ccccc1)oc1ccccc12 | inconclusive: 10 µM [inhibitor, partial curve] | 
CCc1cc(=O)oc2cc(OCC(=O)NCC3CCC(C(=O)O)CC3)ccc12 (stereo unspecified) | inconclusive: 3.16 µM [inhibitor, partial curve, poor fit] | 
CC(c1n[nH]c(=S)n1-c1ccccc1)N1CCCCC1 (stereo unspecified) | inconclusive: 89.1 µM [inhibitor, single point] | 
Cc1nn(-c2ccc(F)cc2)c(Cl)c1/C=N/NC(=O)c1cccc(S(=O)(=O)N2CCCC2)c1 | inconclusive: 2.82 µM [inhibitor, full curve, poor fit] | 
CCOC(=O)c1sc(NC(=O)CSc2nc3c(cc2C#N)CCCCCC3)c(C#N)c1C | inconclusive: 5.01 µM [inhibitor, full curve, poor fit] | 

Compound | Potency | activity change, negative = inhibition
CC1(C)CC(=O)C=C(NNC(=O)c2cccnc2)C1 | inconclusive: 89.1 µM [inhibitor, single point] | 
Cc1cc(-c2nnc(SCC(=O)Nc3nc(-c4ccccc4)cs3)o2)no1 |  | inconclusive: -42.3% [inhibitor]
O=[N+]([O-])c1ccc(/C=N/Nc2nc(N3CCCC3)nc(N3CCCC3)n2)o1 | inconclusive: 25.1 µM [inhibitor, partial curve] | 
CC(=O)O[C@]1(C(C)=O)CC[C@H]2[C@@H]3C=C(C)C4=CC(=O)CC[C@]4(C)[C@H]3CC[C@@]21C | inconclusive: 70.8 µM [inhibitor, single point] | 
CCC(=O)N1CCc2cc(CNC(=O)c3ccccc3C)ccc21 | inactive | 
Cc1ccc(OCC(=O)Nc2ccccc2C(=O)OCc2cc(=O)n3ccsc3n2)cc1 | active: 2.82 µM | 
Cc1ccc(C)c(OCC(=O)Nc2ccc(S(=O)(=O)Nc3onc(C)c3C)cc2)c1 | inactive | 
Cc1ccc2c(=O)cc(C(=O)NCc3ccccc3)oc2c1 | inconclusive: 8.91 µM [inhibitor, full curve] | 
CCOC(=O)Cn1nc(/C=C/c2ccccc2)ccc1=O | inconclusive: 4.47 µM [inhibitor, full curve, poor fit] | 
O=C(O)c1ccc(Cl)c(S(=O)(=O)N2CCCCCC2)c1 | inactive | 
O=S(=O)(c1ccc(F)cc1)N(CC(O)Cn1c2ccccc2c2ccccc21)c1ccccc1 (stereo unspecified) | inconclusive: 79.4 µM [inhibitor, single point] | 
CSc1nc(-c2ccccc2)c(C#N)c(=O)[nH]1 | inactive | 
Cc1oc(-c2ccccc2F)nc1CS(=O)CC(=O)NC(C)C (stereo unspecified) | inconclusive: 89.1 µM [inhibitor, single point] | 
Cc1ccc(NC(=O)CSc2nnc(-c3ccco3)o2)c(C)c1 | inconclusive: 3.55 µM [inhibitor, single point] | 
NNC(=O)C1=NOC2COC3(CCN(c4ncccn4)CC3)OCC12 (stereo unspecified) | inconclusive: 89.1 µM [inhibitor, single point] | 
COc1ccc(OC)c(NC(=O)c2cccc3c2C(=O)N(C2CCCCC2)C3)c1 | inconclusive: 22.4 µM [inhibitor, full curve] and inconclusive: 89.1 µM [inhibitor, partial curve, poor fit] | 
Cc1cc(C)cc(-n2c(SCC(=O)N3CCC(C)CC3)nc3c([nH]c4ccccc43)c2=O)c1 | inactive | 
Cc1ccc(NS(=O)(=O)c2ccc3c(c2)N(C)C(=O)CC(=O)N3C)cc1Cl | inactive | 
CCCOc1c(OC)cccc1C1CC(=O)Nc2cc3c(cc21)OCCO3 (stereo unspecified) | inconclusive: 11.2 µM [inhibitor, partial curve] | 
Cc1ccc(C)c(N2CCN(C(=O)Cn3ncn4cccc4c3=O)CC2)c1 | inconclusive: 0.355 µM [inhibitor, full curve, poor fit] | 
CCC1CCCCN1C(=O)Cn1c(=O)oc2ccccc21 (stereo unspecified) | inconclusive: 4.47 µM [inhibitor, single point] | 

No new results follow: an excerpt of the list.
Compound | Potency | activity change, negative = inhibition
Cc1cc(-c2nnc(SCC(=O)Nc3nc(-c4ccccc4)cs3)o2)no1 |  | inconclusive: -42.3% [inhibitor]
O=[N+]([O-])c1ccc(/C=N/Nc2nc(N3CCCC3)nc(N3CCCC3)n2)o1 | inconclusive: 25.1 µM [inhibitor, partial curve] | 
CC(=O)O[C@]1(C(C)=O)CC[C@H]2[C@@H]3C=C(C)C4=CC(=O)CC[C@]4(C)[C@H]3CC[C@@]21C | inconclusive: 70.8 µM [inhibitor, single point] | 
CCC(=O)N1CCc2cc(CNC(=O)c3ccccc3C)ccc21 | inactive | 
Cc1ccc(OCC(=O)Nc2ccccc2C(=O)OCc2cc(=O)n3ccsc3n2)cc1 | active: 2.82 µM | 
Cc1ccc(C)c(OCC(=O)Nc2ccc(S(=O)(=O)Nc3onc(C)c3C)cc2)c1 | inactive | 
Cc1ccc2c(=O)cc(C(=O)NCc3ccccc3)oc2c1 | inconclusive: 8.91 µM [inhibitor, full curve] | 
CCOC(=O)Cn1nc(/C=C/c2ccccc2)ccc1=O | inconclusive: 4.47 µM [inhibitor, full curve, poor fit] | 
O=C(O)c1ccc(Cl)c(S(=O)(=O)N2CCCCCC2)c1 | inactive | 
O=S(=O)(c1ccc(F)cc1)N(CC(O)Cn1c2ccccc2c2ccccc21)c1ccccc1 (stereo unspecified) | inconclusive: 79.4 µM [inhibitor, single point] | 
CSc1nc(-c2ccccc2)c(C#N)c(=O)[nH]1 | inactive | 
Cc1oc(-c2ccccc2F)nc1CS(=O)CC(=O)NC(C)C (stereo unspecified) | inconclusive: 89.1 µM [inhibitor, single point] | 
Cc1ccc(NC(=O)CSc2nnc(-c3ccco3)o2)c(C)c1 | inconclusive: 3.55 µM [inhibitor, single point] | 
NNC(=O)C1=NOC2COC3(CCN(c4ncccn4)CC3)OCC12 (stereo unspecified) | inconclusive: 89.1 µM [inhibitor, single point] | 
COc1ccc(OC)c(NC(=O)c2cccc3c2C(=O)N(C2CCCCC2)C3)c1 | inconclusive: 22.4 µM [inhibitor, full curve] and inconclusive: 89.1 µM [inhibitor, partial curve, poor fit] | 
Cc1cc(C)cc(-n2c(SCC(=O)N3CCC(C)CC3)nc3c([nH]c4ccccc43)c2=O)c1 | inactive | 
Cc1ccc(NS(=O)(=O)c2ccc3c(c2)N(C)C(=O)CC(=O)N3C)cc1Cl | inactive | 
CCCOc1c(OC)cccc1C1CC(=O)Nc2cc3c(cc21)OCCO3 (stereo unspecified) | inconclusive: 11.2 µM [inhibitor, partial curve] | 
Cc1ccc(C)c(N2CCN(C(=O)Cn3ncn4cccc4c3=O)CC2)c1 | inconclusive: 0.355 µM [inhibitor, full curve, poor fit] | 

Following part

Compound | Potency | activity change, negative = inhibition
COc1ccccc1/C=C/C=N/n1c(-c2n[nH]c3c2CCC3)n[nH]c1=S | active: 7.94 µM | 
O=C(CCS(=O)(=O)c1ccc2c(c1)NC(=O)CO2)NCCc1ccc(Cl)cc1 | inconclusive: 39.8 µM [inhibitor, single point] | 
O=C(Nc1cccc(Cl)c1)N1CC2CCCN2c2ccccc21 (stereo unspecified) | inactive | 
Fc1ccc(NC(=S)N/N=C/c2cccc(Br)c2)c(F)c1 | inactive | 
Cc1ccc(C(=O)CSC2=C(C#N)C(c3ccco3)CC(=O)N2)c(C)c1 (stereo unspecified) | active: 31.6 µM | 
CCOc1ccccc1NS(=O)(=O)c1cc2[nH]c(=O)c(=O)[nH]c2cc1C | inactive | 
CC(=O)c1c(C)[nH]c(C(=O)N(C)C(c2ccccc2)c2ccccc2)c1C | inconclusive: 39.8 µM [inhibitor, single point] | 
COc1ccc(OCc2nn3c(-c4ccco4)nnc3s2)cc1 | inconclusive: 25.1 µM [inhibitor, partial curve] | 
O=C(NC(C(=O)N1CCCC1C(=O)O)=C1CCCCC1)c1ccccc1 (stereo unspecified) | inconclusive: 0.316 µM [inhibitor, full curve, poor fit] | 
CCn1cc(CN2CCCC(C(=O)Nc3ccc(-c4cscn4)cc3)C2)c(C)n1 (stereo unspecified) |  | inconclusive: -31.4% [inhibitor]
c1csc(CSc2nnc3sc4ccccc4n23)c1 | inconclusive: 100 µM [inhibitor, single point] | 
O=C(c1ccc(CS(=O)(=O)c2ccc(Br)cc2)o1)N1CCN(c2ccc(F)cc2)CC1 | inconclusive: 79.4 µM [inhibitor, single point] | 
c1cnc2ccc(-c3ccc4ncccc4c3)cc2c1 | inconclusive: 2.24 µM [inhibitor, partial curve, poor fit] | 
COc1ccc(Cl)cc1NC(=O)CC1S/C(=N/N=C2CCCCCC2)NC1=O (stereo unspecified) | inconclusive: 70.8 µM [inhibitor, single point] | 
CCCCOc1ccccc1C1NC(=O)NC(C)=C1C(=O)OCc1ccco1 (stereo unspecified) | inconclusive: 35.5 µM [inhibitor, partial curve, poor fit] | 
COc1ccc2nc(N3C(=O)/C(=C/c4ccc(Cl)cc4)NC3=S)sc2c1 | inconclusive: 28.2 µM [inhibitor, single point] | 
CCC1CCCCN1C(=O)c1c[nH]c2ccc(S(=O)(=O)Nc3cccc(OC)c3)cc2c1=O (stereo unspecified) | inconclusive: 89.1 µM [inhibitor, single point] | 
NC(=O)CC[C@@H]1NC(=O)[C@H](CO)NC(=O)c2cc([N+](=O)[O-])cc(I)c2OCC[C@@H](C(N)=O)NC1=O | inactive | 
C(=C/c1nccc2c1[nH]c1ccccc12)/c1ccc2c(c1)OCO2 | inconclusive: 15.8 µM [inhibitor, partial curve] | 
COc1ccc(-c2occ(C(=O)O)c2C(=O)O)cc1 | inconclusive: 22.4 µM [inhibitor, full curve] | 
Cc1nnc(N/N=C/c2ccc([N+](=O)[O-])cc2)n1N | inactive | 
Cc1cccc(C2=Nc3ccccc3N=C(c3cc(Cl)ccc3O)C2)c1 |  | inconclusive: -63.9% [inhibitor]
